# Experimental data: PubChem BioAssay AID1671195 (Yale University, 2021)
# Purpose: 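Genes whose knockdown alters LDL uptake in liver cancer cells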 (primary screen)
# Cell system: human Huh7 hepatoma cells
# Knock-down reagent: siRNA pool against human genes, 18 nM
# Duration: about 2 to 2.5 days of knockdown, then 8 h LDL uptake
# Challenge: DiI-labelled LDL at 30 µg/ml for 8 h, in lipoprotein-deficient serum medium
# Measurement: 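Fluorescent LDL signal imaged in cells, scaled to the plate median, robust z-score for each replicate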
# Scale: robust z-score: higher = more LDL uptake after knockdown
# Call rule: 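a gene counts as active if at least two replicate z-scores exceed ±2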
# Shown is a random part of about 22,000 reagents. About 1,510 of them (6.9%) were called active. 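Active includes knockdowns raising or lowering LDL uptake; positive z-scores mean more uptake, negative mean less.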 A number with no mark means an inactive call.
Target gene,"robust z-score, replicate 1","robust z-score, replicate 2","robust z-score, replicate 3"
ACADVL,-0.961,-1.32,-1.18
CYREN,-1.67,-1.44,-1.74
SLC37A1,1.69,1.73,1.62
PSMB10,2.1,1.06,1.55
ALPL,1.19,1.08,1.53
DDR1,-1.29,-1.11,-1.02
ZNF639,0.363,0.00108,0.231
MRPS33,-1.69,-0.0756,-0.0994
MANEAL,-0.0893,0.823,0.41
FLJ10246 (retired record),0.443,0.0717,1.33
TNFRSF1A,2.46 (active),1.15,3.21
TKT,0.798,0.169,1.12
HFE,2.19,-0.0762,-2.73
SEC31B,0.772,1.03,-0.438
ARL9,-0.903,0.823,-0.124
RBM4B,-1.23,-1.38,-1
ZKSCAN8P2,-0.853,-0.783,-0.984
RFPL4A,-1.59,-1.57,-1.35
CUL3,0.362,0.767,-0.267
UPK2,-1.08,-0.429,0.28
RBM12B,0.597,0.877,0.894
RMP64,0.182,1.24,0.542
SESN3,0.392,-0.385,0.449
H1-1,0.36,-0.431,-0.133
BSCL2,-0.447,0.188,-1.59
RPS29,-0.433,0.157,-0.786
SELENOK,-0.256,-0.253,-0.186
FGL1,1.7,1.89,0.872

Hits (from the list above):
Target gene,"robust z-score, replicate 1","robust z-score, replicate 2","robust z-score, replicate 3"
TNFRSF1A,2.46 (active),1.15,3.21
